# Measurements from article PMC10693060.
# Protein sequences, listed by entry. Tags and fused reporters are not part of them.
# UniProt P29466: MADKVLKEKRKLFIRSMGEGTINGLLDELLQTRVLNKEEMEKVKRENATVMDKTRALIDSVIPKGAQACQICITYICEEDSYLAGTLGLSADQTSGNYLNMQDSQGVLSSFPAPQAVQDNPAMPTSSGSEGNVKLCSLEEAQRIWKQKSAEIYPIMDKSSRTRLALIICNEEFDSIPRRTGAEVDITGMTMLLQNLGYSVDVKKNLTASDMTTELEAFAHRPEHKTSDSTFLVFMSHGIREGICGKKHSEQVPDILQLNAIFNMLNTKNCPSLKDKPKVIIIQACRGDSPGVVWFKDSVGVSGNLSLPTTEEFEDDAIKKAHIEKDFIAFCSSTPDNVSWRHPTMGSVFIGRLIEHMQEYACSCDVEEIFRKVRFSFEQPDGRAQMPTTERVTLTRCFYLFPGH
# No constants are given. Whether binding was seen depends on the method and setting. In cells and extracts the contact can be indirect. Some entries that bind do so weakly or less than the wild type.
# Target: T1, caspase-3 (human (endogenous in THP-1)) (UniProt P42574)
# T1 sequence: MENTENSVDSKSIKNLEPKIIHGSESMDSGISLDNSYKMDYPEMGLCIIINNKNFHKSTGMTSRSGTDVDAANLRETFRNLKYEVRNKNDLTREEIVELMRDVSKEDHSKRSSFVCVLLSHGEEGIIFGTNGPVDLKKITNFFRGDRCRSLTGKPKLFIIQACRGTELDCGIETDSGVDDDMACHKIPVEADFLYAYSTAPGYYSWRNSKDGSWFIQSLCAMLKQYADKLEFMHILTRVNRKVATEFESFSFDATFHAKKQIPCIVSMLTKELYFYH
# Assay: co-IP; THP-1 macrophage lysate mixed with caspase-1 or caspase-3 antibody and protein A/G-agarose beads overnight at 4 °C; nonimmune IgG as negative control; detection by western blot; cells treated with nicotine (and MT)
substance,measurement,value
caspase-1 (from UniProt P29466 1-404) (enzyme),binding,binds
